In publication PMC5601122:
No constants are given. Whether binding was seen depends on the method and setting. In cells and extracts the contact can be indirect. Some results given as binding are weak or reduced against the parent protein; the word gives no strength.

The chains behind the UniProt entries cited, without tags or fusion partners.
UniProt Q13158: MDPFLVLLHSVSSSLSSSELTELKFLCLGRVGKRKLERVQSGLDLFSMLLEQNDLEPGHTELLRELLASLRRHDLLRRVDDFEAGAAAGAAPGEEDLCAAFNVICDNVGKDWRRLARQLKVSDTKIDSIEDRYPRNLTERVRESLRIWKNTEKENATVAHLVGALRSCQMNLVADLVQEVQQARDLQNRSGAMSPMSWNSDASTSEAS
UniProt Q13546: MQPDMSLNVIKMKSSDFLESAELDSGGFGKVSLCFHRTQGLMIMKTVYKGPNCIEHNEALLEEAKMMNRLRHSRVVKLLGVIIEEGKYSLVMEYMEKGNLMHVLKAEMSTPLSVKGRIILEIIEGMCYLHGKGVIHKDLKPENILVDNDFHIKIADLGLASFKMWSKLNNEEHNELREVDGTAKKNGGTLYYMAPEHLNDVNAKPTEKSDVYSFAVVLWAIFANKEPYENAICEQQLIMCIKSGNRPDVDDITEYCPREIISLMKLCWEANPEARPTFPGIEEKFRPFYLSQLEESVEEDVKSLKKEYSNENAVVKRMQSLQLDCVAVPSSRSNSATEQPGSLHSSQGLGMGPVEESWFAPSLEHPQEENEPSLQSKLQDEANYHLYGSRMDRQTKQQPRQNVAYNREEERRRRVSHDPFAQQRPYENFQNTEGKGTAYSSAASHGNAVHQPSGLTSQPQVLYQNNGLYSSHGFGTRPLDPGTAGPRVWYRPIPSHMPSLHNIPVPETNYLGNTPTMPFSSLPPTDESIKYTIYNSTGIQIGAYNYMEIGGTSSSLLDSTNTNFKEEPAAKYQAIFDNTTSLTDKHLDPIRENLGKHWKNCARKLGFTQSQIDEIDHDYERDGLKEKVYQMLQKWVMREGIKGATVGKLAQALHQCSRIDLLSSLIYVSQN
UniProt Q9Y572: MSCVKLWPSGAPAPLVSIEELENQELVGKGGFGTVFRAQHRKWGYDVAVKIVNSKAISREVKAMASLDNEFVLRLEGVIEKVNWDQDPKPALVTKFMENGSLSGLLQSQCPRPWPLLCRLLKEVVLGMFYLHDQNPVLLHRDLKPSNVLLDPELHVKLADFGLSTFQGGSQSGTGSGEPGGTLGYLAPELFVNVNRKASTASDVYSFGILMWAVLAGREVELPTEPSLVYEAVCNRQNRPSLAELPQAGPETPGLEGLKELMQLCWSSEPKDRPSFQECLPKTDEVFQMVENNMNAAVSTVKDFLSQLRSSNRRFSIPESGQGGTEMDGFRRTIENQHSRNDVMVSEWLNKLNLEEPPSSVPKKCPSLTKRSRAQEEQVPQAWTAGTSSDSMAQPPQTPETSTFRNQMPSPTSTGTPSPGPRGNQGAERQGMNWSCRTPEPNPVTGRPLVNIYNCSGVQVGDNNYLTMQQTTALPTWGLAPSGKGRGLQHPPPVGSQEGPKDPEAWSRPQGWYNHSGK

Target: p62/SQSTM1 (human (endogenous in SCC029B)) (UniProt Q13501)
Test: co-IP; lysates of SCC029B cells treated with 400 nM Obatoclax for 48 hours or vehicle control; EBC lysis buffer (50 mM Tris pH 7.4, 150 mM NaCl, 1 mM EDTA, 0.5% NP-40); precipitated with p62 antibody overnight at 4°C, protein G-sepharose, immunoblotting

binding	Substance
binds	FADD (from UniProt Q13158 1-208)
binds	Receptor-interacting protein kinase RIP1K (from UniProt Q13546 1-671)
binds	Receptor-interacting protein kinase RIP3K (from UniProt Q9Y572 1-518)
